According to article PMC6399936:
Results are given in words; binding and its absence hold for the method and conditions named. Binding seen in cells or lysates may run through a third protein. Some results given as binding are weak or reduced against the parent protein; the word gives no strength. For some assays here: Tags and fused reporters may be left off the sequences shown. Values belong to the molecule of their own block, whether it stands above or below them.

Chains of the proteins cited; added tags and fusions are not shown. Residues count along the entry.
UniProt P45481: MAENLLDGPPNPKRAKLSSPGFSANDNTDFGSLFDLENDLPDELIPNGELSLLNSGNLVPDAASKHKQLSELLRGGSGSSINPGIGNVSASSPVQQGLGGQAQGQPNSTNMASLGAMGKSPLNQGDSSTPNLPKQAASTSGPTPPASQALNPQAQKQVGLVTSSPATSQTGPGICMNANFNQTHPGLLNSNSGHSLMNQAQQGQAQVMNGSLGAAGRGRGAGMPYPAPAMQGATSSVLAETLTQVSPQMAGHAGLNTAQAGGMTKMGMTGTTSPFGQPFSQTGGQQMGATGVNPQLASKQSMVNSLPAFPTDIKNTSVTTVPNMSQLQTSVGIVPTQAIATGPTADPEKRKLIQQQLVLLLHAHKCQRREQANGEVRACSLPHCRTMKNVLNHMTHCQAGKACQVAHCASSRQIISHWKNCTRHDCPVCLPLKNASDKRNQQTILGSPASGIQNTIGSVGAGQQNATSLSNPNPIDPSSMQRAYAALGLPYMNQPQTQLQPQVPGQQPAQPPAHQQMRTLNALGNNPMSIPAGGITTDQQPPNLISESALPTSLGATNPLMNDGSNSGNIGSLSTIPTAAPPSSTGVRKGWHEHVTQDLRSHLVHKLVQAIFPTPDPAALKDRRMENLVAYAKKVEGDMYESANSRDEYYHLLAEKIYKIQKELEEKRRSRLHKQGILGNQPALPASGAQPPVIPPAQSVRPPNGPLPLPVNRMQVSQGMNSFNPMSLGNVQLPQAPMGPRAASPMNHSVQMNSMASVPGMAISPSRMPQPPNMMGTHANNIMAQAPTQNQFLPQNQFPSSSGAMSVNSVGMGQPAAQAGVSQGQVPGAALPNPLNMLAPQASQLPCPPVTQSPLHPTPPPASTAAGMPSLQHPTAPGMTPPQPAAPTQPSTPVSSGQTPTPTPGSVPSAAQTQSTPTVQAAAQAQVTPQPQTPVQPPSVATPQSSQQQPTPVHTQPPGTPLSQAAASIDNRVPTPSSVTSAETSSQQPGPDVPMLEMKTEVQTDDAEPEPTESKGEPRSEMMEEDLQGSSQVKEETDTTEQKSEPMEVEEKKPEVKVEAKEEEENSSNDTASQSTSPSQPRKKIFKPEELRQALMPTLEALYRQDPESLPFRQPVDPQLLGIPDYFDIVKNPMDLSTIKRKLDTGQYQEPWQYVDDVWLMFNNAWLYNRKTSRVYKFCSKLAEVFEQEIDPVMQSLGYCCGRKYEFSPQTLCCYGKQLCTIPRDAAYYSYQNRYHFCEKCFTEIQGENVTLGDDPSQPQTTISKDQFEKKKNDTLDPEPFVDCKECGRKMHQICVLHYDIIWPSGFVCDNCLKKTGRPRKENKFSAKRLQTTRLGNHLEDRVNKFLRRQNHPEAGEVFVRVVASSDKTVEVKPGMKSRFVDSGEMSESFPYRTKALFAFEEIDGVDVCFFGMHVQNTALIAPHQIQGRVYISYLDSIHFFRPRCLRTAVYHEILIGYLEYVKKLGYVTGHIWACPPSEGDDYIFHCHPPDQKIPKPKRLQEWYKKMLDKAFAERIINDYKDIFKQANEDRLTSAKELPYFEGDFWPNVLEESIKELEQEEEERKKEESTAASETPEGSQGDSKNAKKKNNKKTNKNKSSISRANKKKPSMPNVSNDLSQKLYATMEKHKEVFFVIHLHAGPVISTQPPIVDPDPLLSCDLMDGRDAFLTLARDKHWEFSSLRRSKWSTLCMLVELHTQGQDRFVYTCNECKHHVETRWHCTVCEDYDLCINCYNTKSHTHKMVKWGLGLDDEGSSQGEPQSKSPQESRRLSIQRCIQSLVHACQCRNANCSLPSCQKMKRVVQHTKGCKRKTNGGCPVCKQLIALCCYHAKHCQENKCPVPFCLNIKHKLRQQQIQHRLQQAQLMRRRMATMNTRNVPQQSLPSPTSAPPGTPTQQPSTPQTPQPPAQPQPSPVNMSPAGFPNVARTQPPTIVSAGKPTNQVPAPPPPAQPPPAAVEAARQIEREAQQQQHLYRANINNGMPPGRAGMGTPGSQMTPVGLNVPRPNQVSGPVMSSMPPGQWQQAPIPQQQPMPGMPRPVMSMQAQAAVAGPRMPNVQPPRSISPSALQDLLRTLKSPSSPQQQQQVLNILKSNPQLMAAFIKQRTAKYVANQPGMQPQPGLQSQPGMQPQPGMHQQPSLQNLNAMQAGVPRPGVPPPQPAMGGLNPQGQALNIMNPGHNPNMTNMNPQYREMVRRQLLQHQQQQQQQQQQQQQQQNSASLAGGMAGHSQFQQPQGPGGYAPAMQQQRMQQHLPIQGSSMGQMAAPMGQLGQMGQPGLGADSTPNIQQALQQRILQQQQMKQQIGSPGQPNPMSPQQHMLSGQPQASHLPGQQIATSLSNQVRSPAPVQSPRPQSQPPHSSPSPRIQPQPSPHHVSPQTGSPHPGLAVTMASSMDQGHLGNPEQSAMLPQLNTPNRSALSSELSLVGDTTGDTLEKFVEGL
UniProt Q60751, residues 31-1373: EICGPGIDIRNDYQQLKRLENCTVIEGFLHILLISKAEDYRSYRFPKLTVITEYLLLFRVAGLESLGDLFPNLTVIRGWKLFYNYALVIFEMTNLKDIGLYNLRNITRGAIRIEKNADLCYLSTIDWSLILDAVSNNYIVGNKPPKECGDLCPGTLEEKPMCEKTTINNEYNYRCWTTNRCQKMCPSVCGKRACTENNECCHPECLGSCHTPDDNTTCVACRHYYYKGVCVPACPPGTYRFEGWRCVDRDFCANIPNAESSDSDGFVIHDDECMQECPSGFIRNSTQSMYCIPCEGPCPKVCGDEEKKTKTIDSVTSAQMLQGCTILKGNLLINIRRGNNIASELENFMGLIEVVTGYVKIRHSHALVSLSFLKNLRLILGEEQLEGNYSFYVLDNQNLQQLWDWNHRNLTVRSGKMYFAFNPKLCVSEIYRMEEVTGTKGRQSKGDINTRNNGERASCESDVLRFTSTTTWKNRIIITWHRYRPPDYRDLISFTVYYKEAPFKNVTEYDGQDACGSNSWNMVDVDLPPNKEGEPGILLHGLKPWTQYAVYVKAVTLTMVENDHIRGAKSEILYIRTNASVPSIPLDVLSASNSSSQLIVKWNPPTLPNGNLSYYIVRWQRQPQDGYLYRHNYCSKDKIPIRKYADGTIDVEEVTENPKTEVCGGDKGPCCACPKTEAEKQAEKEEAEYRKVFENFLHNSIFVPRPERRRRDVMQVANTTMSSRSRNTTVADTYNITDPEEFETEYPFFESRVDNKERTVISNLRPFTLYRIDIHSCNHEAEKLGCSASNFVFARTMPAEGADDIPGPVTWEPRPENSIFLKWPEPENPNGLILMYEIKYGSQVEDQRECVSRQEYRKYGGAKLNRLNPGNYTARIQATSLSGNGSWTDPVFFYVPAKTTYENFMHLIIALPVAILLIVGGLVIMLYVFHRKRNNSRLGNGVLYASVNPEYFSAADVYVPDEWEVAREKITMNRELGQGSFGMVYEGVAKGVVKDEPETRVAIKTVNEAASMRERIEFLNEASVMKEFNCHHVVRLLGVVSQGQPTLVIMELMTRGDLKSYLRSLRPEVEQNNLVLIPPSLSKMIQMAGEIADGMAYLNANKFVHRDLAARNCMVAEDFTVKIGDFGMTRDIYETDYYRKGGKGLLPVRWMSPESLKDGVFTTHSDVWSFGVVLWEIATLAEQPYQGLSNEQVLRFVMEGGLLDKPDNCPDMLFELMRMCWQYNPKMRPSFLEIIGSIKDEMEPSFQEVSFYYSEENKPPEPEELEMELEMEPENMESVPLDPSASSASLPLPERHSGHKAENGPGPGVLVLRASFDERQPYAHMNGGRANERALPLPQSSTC

Assays:
[1] = molecular target: T1, Ca2+/calmodulin-dependent kinase IV (mouse (endogenous in E19 embryo brain of 3xTg AD mice)) (UniProt P08414); assay: co-IP; E19 embryo extracts of control and GEE-exposed 3xTg AD mice; 600 ug total proteins with 10 ug anti-CaMKIV (Santa Cruz) or anti-IGF1R (Proteintech) overnight at 4 °C, protein A + G agarose; western blotting with anti-CaMKIV or IGF1R
T1 sequence: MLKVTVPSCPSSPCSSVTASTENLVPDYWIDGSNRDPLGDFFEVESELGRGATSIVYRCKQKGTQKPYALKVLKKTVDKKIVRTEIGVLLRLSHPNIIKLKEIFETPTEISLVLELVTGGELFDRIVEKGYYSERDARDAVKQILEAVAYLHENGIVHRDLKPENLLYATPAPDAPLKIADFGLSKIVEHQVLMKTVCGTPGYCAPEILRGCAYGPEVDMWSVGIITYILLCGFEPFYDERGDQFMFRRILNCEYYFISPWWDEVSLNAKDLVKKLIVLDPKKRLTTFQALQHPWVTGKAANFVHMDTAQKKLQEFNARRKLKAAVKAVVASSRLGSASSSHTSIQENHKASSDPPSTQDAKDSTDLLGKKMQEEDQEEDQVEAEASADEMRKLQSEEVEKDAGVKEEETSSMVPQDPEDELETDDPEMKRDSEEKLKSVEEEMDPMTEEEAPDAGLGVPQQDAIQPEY

[2] = molecular target: CREB-binding protein (mouse (endogenous in E19 embryo brain of 3xTg AD mice)) (UniProt P45481); assay: co-IP; E19 embryo brain (hippocampi) lysate of control and GEE-exposed 3xTg AD mice; about 600 ug total protein with 10 ug anti-CBP or anti-CaMKIV overnight at 4 °C, protein A + G agarose; western blotting

- binding [1]: binds
Molecule: insulin-like growth factor 1 receptor (from UniProt Q60751 31-1373)

- binding [2]: binds
B1: Ca2+/calmodulin-dependent kinase IV (enzyme, UniProt P08414 1-469)
chain: T1 sequence
